# The list shows a part of the results. The data scatter; read single values as rough.
# By UniProt entry, the sequences of proteins in these tests, tags left out. Where a name states a change or a piece, a line headed by the entry shows the natural chain unless it says otherwise. Residues count along the entry.
# UniProt Q03164, 2071-2093: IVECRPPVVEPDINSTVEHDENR
# UniProt Q03164, whole entry, looked up: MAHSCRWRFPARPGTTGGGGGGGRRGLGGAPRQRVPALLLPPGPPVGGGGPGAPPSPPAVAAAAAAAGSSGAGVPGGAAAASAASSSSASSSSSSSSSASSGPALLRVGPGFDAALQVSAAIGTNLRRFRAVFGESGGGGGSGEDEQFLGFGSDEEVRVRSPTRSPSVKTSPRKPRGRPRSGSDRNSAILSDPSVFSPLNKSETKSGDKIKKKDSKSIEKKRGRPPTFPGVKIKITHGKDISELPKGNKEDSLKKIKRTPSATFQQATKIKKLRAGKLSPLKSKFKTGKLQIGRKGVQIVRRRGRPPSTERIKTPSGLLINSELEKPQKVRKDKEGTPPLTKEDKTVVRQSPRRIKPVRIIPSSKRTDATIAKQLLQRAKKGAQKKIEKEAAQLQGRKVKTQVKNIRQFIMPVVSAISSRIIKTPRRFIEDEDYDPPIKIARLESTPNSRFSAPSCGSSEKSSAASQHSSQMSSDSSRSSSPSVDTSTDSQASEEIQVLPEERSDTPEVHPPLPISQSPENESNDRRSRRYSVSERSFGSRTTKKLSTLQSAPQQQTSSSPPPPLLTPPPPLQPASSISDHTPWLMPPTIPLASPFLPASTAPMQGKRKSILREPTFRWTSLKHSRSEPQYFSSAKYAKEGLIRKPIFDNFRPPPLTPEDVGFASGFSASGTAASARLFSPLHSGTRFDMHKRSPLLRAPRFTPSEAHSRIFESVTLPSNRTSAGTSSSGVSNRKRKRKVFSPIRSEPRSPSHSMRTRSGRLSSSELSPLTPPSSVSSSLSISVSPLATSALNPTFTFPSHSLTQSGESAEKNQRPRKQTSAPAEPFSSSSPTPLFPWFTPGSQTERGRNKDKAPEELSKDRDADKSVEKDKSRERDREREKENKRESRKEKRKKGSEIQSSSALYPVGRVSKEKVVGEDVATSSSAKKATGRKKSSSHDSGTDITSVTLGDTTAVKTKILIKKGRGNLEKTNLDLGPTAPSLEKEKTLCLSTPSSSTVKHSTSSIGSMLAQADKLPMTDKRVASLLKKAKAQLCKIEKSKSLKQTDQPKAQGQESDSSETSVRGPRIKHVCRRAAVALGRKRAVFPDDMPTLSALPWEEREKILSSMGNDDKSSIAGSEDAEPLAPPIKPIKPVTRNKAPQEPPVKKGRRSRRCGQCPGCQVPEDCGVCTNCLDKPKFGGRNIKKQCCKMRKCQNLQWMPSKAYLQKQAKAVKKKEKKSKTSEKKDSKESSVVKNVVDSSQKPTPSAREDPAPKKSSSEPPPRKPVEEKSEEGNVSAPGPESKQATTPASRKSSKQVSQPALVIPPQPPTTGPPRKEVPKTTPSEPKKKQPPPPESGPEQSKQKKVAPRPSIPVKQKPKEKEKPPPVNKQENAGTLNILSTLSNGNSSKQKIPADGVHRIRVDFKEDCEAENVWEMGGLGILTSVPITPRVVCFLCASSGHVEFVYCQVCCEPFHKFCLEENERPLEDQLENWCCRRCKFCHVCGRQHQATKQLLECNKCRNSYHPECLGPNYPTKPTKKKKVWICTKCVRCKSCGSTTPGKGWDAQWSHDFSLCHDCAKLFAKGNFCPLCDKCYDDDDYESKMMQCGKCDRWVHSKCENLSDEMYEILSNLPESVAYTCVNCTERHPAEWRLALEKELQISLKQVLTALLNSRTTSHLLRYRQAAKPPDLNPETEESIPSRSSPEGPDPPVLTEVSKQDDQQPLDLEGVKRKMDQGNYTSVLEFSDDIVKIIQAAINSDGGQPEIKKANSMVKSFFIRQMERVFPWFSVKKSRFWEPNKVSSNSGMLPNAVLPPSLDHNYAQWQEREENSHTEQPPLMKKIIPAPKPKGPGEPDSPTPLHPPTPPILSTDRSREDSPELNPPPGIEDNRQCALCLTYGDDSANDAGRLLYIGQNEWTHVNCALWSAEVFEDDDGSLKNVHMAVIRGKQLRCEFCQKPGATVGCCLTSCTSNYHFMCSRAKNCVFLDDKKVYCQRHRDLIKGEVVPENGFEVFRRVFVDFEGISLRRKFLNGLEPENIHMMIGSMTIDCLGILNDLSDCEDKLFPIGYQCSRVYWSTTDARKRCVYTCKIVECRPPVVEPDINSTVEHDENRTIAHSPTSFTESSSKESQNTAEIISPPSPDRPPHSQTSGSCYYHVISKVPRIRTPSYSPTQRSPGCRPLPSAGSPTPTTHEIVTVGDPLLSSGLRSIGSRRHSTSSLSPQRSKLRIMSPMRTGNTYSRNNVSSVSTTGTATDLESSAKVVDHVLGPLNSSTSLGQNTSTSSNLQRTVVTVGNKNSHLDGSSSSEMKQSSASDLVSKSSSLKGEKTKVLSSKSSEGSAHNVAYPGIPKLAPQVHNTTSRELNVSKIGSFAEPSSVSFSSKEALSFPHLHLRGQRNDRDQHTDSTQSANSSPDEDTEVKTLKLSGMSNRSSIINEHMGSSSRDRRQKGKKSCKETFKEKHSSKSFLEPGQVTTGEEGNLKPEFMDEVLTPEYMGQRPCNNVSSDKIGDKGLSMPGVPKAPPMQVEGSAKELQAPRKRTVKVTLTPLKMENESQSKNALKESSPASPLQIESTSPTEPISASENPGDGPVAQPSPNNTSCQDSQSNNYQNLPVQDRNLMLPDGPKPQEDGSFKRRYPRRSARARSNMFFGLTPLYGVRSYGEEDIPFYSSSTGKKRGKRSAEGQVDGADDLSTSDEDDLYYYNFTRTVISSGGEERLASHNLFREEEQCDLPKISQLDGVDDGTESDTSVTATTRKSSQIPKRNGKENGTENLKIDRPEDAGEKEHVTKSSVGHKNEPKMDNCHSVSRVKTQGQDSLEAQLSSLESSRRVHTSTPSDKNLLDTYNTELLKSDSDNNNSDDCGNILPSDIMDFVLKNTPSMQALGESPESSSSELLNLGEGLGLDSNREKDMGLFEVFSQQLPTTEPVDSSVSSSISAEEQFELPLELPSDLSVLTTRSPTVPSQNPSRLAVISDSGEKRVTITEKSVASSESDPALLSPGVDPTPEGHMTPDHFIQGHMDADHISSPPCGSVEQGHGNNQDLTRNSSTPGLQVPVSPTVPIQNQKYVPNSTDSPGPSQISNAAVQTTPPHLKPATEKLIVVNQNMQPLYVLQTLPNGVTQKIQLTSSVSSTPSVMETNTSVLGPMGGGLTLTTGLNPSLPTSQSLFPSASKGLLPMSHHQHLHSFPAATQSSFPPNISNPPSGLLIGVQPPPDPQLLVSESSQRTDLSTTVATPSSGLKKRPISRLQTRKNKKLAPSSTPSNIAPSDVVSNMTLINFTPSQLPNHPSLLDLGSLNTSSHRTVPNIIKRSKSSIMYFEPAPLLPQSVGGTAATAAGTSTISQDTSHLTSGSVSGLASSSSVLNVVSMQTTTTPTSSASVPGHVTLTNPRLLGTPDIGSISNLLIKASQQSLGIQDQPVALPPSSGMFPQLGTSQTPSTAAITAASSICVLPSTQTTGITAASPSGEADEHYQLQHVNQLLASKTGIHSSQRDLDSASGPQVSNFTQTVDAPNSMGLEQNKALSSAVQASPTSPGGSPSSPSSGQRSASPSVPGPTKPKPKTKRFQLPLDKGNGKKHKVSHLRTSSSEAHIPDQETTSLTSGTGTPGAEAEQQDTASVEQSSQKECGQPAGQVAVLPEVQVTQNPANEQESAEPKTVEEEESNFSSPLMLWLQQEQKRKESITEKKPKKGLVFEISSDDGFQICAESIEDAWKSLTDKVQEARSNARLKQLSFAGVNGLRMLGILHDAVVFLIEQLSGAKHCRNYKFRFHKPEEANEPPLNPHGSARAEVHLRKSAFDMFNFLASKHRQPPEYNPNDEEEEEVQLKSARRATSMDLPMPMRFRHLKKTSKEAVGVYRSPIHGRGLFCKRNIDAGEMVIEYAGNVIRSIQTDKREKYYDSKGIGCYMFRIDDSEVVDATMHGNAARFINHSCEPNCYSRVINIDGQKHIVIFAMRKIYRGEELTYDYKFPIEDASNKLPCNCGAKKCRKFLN
# UniProt Q96PV6, whole entry, looked up: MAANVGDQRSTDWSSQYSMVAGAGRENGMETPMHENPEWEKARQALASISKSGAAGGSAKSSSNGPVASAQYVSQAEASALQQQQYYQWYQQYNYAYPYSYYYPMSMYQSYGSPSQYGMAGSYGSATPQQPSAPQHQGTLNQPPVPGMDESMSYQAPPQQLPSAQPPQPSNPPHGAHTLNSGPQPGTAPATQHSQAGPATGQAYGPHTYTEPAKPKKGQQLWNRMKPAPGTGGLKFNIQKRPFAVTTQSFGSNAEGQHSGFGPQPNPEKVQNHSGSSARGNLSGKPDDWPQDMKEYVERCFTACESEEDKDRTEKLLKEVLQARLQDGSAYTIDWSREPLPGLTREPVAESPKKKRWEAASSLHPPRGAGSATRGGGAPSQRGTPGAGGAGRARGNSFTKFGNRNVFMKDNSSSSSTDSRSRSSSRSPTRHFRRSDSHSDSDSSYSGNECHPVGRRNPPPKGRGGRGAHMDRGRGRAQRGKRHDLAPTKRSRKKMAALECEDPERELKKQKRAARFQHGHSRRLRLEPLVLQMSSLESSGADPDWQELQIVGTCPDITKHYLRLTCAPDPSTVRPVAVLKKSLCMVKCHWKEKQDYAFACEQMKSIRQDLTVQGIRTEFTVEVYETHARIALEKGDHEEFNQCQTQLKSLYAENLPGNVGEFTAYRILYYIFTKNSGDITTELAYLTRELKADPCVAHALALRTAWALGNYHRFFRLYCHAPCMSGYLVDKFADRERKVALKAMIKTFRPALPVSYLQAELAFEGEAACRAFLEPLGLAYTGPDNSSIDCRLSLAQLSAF
# UniProt Q96PV6, 435-455: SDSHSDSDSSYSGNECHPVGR
# UniProt P28838: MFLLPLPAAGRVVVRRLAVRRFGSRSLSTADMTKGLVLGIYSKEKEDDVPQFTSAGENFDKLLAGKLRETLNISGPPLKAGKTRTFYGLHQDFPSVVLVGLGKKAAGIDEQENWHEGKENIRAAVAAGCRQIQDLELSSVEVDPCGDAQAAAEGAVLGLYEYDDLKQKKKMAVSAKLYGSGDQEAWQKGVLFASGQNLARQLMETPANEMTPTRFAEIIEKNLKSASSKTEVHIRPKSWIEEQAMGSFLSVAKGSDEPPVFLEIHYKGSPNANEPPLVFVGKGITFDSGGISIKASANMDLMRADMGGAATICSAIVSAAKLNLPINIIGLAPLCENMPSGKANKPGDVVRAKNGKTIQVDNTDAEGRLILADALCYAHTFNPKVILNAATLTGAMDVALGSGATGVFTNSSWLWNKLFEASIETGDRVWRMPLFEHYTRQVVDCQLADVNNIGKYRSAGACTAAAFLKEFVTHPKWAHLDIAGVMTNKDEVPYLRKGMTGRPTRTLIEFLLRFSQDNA
# UniProt Q7L5N7, 206-226: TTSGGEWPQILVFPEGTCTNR
# UniProt P48059, whole entry, looked up: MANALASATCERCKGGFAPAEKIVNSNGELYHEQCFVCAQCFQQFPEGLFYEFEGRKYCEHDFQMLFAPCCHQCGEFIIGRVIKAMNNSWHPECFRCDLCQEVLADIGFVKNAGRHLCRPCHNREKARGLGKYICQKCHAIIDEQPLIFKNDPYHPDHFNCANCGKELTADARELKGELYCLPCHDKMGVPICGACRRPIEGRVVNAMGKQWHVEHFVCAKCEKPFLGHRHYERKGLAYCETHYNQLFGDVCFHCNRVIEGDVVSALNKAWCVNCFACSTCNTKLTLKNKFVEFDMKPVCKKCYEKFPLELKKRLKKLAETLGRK
# UniProt Q5TKA1: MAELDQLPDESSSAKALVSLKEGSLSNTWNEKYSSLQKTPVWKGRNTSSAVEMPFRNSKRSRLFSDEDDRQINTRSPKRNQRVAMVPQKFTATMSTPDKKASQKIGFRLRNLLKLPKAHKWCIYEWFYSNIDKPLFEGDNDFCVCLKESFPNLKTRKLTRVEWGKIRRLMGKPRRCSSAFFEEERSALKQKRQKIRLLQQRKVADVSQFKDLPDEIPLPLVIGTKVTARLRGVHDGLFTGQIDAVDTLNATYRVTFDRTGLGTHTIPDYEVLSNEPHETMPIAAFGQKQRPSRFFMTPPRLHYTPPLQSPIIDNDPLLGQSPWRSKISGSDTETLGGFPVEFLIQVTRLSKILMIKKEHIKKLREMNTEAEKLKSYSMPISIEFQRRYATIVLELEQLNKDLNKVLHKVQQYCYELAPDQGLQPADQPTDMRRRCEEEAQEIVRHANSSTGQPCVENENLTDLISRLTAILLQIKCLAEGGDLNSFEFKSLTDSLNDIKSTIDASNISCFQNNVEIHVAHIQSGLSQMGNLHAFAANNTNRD
# UniProt Q9C0E8, 148-167: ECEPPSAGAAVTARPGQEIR
# Compound: ClCC(=O)N[C@H]1CCCc2ccccc12
# Test: log2 mean competition ratio of IA-DTB cysteine labelling (DMSO/compound) (log2 ratio); higher = stronger cysteine engagement by compound
# Settings: 200 µM; treatment time: 4 h; cell line lysate: HEK293T
# Method: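 IA-DTB competitive cysteine chemoproteomics in HEK293T RIPA lysate. Lysates were treated with compound 29 or 30 at 50 or 200 µM for 4 h, then IA-DTB (500 µM, 1 h), trypsin-digested, NeutrAvidin-enriched and analysed by diaPASEF. Competition ratio = intensity DMSO / intensity compound (n=4 treated, n=64 DMSO); binding: mean log2 CR ≥ 1 and p ≤ 0.05 plus QC filters. Target is the cysteine site.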
row,Target,log2 mean competition ratio
1,KIF7 C409,0.621
2,KMT2A C2074 (UniProt Q03164),-0.247
3,LENG8 C500 (UniProt Q96PV6),0.443
4,KLC2 C474 (UniProt Q9H0B6),0.0278
5,LIG1 C565 (UniProt P18858),-0.00265
6,LEMD3 C838 (UniProt Q9Y2U8),0.112
7,KPNA6 C139 (UniProt O60684),-0.264
8,LAS1L C256 (UniProt Q9Y4W2),0.091
9,LIG1 C280 (UniProt P18858),0.0764
10,KNTC1 C475 (UniProt P50748),-0.413
11,LLGL1 C915 (UniProt Q15334),0.0496
12,KMT2B C1268 (UniProt Q9UMN6),0.0557
13,LAP3 C129 (UniProt P28838),0.149
14,LARP1 C238 (UniProt Q6PKG0),0.484
15,LIG4 C510 (UniProt P49917),0.185
16,LOC102724159 C158,0.0035
17,LLGL1 C855 (UniProt Q15334),0.11
18,LPCAT2 C223 (UniProt Q7L5N7),0.0291
19,LIMS1 C222 (UniProt P48059),-0.509

row,Target,log2 mean competition ratio
1,LIN9 C435 (UniProt Q5TKA1),0.422
2,LIMS3;LIMS4 C10;(C10),-0.032
3,KNL1 C2216 (UniProt Q8NG31),-0.136
4,LONP2 C405 (UniProt Q86WA8),0.277
5,KLHL23 C245,0.475
6,LAP3 C445 (UniProt P28838),0.24
7,KPNA6 C357 (UniProt O60684),-0.042
8,KPNB1 C543,-0.113
9,LEMD2 C355 (UniProt Q8NC56),-0.383
10,LENG8 C450 (UniProt Q96PV6),-0.182
11,LMO7 C261 (UniProt Q8WWI1),0.00924
12,KMT2E C839 (UniProt Q8IZD2),0.423
13,KIF5B C294 (UniProt P33176),0.277
14,LMOD1 C72,-0.000902
15,LNPK C149 (UniProt Q9C0E8),-0.138
16,KTN1 C736,-0.216
17,KMT2A C2783 (UniProt Q03164),0.279
18,KYAT3 C416 (UniProt Q6YP21),-0.0311

# A stretch from further up, for reference:
row,Target,log2 mean competition ratio
1,LIN9 C435 (UniProt Q5TKA1),0.422
2,LIMS3;LIMS4 C10;(C10),-0.032
3,KNL1 C2216 (UniProt Q8NG31),-0.136
4,LONP2 C405 (UniProt Q86WA8),0.277
5,KLHL23 C245,0.475
6,LAP3 C445 (UniProt P28838),0.24
7,KPNA6 C357 (UniProt O60684),-0.042
8,KPNB1 C543,-0.113
9,LEMD2 C355 (UniProt Q8NC56),-0.383
10,LENG8 C450 (UniProt Q96PV6),-0.182
11,LMO7 C261 (UniProt Q8WWI1),0.00924
